Experimental data reported in the supplement of paper PMC10849652.
The list shows a part of the results.

By UniProt entry, the sequences of proteins in these tests, tags left out. Where a name states a change or a piece, a line headed by the entry shows the natural chain unless it says otherwise.
UniProt O00483, whole entry, looked up: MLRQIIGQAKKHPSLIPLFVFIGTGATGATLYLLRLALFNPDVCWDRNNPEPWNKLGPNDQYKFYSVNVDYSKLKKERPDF
UniProt Q6P582, whole entry, looked up: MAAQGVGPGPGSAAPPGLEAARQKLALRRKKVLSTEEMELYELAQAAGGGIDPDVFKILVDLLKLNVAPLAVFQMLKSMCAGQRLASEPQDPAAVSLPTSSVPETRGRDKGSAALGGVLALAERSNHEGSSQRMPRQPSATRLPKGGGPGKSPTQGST
UniProt Q147X3: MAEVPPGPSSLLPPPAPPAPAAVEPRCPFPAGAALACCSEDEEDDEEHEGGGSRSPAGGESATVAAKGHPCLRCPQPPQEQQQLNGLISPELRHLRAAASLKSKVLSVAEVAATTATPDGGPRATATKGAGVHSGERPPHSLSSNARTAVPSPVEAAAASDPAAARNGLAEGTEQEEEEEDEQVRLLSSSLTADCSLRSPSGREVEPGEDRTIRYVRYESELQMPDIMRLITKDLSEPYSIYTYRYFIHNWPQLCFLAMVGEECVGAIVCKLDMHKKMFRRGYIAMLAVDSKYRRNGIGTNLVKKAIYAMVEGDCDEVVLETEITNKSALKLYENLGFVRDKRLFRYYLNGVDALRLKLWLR
UniProt O43920, whole entry, looked up: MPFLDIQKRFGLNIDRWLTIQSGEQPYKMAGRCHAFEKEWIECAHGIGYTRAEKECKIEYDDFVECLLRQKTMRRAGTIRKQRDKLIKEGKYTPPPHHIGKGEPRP
UniProt O43678, whole entry, looked up: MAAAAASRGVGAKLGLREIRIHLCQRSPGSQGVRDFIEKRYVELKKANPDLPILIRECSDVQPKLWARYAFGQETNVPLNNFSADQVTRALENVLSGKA
UniProt O75376, whole entry, looked up: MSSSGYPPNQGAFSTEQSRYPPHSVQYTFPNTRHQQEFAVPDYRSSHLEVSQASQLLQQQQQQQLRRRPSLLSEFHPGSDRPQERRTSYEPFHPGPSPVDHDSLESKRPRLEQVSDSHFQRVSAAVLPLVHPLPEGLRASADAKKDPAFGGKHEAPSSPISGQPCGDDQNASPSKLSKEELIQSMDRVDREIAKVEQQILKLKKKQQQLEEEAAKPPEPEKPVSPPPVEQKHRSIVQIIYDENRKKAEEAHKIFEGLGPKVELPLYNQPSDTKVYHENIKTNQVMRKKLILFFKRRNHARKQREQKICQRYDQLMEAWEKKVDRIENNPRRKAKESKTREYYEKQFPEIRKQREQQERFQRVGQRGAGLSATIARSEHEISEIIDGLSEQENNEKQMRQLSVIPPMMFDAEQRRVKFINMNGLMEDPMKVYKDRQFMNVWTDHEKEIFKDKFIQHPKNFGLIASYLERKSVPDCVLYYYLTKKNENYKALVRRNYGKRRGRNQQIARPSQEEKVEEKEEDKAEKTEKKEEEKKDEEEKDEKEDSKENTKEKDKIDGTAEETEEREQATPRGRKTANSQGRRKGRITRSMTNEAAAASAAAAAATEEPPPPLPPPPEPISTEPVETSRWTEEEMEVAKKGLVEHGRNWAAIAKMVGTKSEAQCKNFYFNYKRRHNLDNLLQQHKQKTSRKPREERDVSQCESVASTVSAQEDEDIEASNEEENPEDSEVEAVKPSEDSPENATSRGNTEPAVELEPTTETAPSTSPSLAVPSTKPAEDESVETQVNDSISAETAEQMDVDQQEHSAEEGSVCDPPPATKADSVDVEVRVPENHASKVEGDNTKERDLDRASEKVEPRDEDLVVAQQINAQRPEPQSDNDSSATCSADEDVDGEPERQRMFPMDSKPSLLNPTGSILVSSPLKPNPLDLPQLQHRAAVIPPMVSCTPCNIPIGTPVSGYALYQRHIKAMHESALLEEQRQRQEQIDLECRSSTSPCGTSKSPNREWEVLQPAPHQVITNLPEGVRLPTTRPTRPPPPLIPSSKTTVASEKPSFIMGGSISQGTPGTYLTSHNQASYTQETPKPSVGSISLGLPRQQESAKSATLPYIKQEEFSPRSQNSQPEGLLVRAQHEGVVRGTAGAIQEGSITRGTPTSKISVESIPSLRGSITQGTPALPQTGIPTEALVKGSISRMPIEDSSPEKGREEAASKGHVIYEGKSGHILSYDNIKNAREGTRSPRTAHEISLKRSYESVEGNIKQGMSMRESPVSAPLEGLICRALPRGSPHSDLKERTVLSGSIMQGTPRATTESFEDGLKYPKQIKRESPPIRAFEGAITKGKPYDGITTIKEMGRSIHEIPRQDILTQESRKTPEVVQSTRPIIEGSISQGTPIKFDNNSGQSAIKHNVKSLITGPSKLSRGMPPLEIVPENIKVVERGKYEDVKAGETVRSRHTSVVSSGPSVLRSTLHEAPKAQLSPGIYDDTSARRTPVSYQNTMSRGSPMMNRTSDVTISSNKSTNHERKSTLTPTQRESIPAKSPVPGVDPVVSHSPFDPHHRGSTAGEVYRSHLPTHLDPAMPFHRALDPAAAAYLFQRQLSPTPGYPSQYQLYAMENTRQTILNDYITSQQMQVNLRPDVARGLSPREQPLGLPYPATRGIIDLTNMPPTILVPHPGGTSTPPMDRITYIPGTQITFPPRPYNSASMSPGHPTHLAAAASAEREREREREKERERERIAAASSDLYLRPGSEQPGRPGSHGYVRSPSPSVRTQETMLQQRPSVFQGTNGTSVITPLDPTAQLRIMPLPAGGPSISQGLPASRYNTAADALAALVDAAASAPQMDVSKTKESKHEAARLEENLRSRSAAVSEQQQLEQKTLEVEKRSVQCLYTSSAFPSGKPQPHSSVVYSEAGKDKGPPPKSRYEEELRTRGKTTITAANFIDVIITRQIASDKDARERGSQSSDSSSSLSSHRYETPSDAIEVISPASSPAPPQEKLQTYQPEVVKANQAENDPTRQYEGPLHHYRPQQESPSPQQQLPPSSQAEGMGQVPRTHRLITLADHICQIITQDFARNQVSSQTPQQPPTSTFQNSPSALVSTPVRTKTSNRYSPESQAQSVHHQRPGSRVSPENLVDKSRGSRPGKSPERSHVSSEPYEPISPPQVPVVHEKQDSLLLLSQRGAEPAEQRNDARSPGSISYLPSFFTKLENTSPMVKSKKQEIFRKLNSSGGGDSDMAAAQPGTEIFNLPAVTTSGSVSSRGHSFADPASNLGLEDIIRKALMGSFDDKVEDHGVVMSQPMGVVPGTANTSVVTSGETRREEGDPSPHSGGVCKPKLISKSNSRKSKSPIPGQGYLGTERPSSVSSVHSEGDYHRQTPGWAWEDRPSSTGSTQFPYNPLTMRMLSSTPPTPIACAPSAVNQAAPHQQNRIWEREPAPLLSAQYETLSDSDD
UniProt Q9Y5N5: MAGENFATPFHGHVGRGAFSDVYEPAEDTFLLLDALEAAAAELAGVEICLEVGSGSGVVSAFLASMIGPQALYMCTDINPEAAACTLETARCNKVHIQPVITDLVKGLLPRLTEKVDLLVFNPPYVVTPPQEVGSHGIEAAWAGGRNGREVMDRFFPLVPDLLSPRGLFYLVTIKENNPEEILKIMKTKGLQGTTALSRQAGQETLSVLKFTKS
UniProt O95299, whole entry, looked up: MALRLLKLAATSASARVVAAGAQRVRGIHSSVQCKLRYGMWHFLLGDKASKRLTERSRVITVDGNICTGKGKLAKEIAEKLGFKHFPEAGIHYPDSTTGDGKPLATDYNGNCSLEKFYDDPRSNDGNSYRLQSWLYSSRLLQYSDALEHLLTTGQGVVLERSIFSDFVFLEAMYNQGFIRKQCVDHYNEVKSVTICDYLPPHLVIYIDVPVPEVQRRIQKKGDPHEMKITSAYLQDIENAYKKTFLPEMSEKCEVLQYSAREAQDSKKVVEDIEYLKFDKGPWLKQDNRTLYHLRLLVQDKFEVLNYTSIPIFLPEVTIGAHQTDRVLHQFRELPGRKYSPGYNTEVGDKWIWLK
UniProt O76041: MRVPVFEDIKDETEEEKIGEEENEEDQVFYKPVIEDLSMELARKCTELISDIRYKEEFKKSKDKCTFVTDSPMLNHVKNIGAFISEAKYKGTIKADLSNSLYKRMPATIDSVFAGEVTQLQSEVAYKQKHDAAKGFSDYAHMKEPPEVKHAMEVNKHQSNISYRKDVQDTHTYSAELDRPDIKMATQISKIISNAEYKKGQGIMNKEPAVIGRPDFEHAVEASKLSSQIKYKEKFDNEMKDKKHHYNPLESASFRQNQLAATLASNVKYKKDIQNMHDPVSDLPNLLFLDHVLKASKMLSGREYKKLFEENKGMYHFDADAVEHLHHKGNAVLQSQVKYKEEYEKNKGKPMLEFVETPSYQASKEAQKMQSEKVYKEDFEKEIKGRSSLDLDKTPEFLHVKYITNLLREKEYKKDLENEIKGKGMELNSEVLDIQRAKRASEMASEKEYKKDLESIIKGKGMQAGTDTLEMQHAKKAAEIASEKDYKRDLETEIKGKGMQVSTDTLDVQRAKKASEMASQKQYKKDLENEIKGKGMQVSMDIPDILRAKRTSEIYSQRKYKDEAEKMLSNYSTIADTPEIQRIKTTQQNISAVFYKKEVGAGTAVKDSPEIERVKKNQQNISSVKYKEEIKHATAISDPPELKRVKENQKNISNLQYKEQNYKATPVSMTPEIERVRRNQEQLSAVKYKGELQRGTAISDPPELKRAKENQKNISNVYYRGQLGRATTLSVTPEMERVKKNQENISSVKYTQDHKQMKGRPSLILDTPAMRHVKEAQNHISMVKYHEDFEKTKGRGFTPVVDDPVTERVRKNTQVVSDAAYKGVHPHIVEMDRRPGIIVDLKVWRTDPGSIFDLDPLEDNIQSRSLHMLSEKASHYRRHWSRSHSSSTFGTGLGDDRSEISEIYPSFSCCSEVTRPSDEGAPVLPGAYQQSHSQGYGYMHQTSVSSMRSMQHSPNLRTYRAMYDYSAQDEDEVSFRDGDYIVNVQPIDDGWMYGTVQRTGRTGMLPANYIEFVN
UniProt Q15003, whole entry, looked up: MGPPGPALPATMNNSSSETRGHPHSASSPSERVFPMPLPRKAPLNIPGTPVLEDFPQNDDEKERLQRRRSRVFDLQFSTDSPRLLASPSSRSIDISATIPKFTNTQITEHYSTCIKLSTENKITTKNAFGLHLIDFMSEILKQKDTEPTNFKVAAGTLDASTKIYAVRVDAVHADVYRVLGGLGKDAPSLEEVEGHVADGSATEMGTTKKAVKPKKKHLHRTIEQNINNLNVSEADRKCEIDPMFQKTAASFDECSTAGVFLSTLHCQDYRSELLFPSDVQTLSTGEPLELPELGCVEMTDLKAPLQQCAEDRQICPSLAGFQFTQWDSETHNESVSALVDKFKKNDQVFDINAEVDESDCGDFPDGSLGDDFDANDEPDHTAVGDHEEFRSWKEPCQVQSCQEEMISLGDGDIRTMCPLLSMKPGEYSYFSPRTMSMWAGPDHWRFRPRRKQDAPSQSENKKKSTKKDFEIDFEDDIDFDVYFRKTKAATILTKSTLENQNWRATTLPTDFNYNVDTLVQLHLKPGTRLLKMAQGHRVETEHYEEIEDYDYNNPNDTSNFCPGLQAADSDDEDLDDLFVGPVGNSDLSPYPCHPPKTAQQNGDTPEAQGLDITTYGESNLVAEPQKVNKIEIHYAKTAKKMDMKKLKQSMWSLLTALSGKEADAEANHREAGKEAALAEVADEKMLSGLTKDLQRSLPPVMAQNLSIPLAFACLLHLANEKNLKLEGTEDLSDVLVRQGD
UniProt Q8NCW5: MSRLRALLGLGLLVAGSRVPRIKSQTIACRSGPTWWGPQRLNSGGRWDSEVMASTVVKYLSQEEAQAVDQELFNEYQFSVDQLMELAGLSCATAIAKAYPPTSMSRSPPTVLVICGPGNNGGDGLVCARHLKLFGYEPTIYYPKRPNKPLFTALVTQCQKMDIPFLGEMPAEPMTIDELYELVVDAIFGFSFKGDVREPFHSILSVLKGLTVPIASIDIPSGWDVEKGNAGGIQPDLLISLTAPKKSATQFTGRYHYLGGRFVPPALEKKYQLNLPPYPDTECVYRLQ
UniProt Q86Y39, whole entry, looked up: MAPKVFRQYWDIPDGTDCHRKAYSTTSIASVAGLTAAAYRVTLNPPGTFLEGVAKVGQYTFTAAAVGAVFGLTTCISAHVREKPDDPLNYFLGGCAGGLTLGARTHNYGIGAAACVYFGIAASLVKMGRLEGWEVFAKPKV
UniProt O43674, whole entry, looked up: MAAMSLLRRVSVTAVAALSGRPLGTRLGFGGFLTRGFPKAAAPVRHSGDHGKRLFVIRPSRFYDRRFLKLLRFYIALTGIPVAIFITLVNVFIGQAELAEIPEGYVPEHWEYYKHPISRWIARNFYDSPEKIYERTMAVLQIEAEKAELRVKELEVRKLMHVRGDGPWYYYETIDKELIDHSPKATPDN
UniProt Q9GZM8: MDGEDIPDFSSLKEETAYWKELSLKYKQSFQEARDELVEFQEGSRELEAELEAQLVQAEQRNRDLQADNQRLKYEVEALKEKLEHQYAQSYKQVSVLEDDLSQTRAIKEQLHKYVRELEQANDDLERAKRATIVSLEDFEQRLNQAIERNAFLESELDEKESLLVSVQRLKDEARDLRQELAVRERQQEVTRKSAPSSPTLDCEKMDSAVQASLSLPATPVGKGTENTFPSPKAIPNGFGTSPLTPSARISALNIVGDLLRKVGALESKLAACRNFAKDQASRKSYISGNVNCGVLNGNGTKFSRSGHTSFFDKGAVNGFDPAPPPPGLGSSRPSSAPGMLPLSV

What follows are targets tested with Cc1ccc(NC(=O)c2ccc(CN3CC[C@H](N(C)C)C3)c(C(F)(F)F)c2)cc1Nc1nccc(-c2cncnc2)n1 [bafetinib] (assay: log2 fold change, soluble protein after heating vs DMSO (PISA); higher = thermal stabilisation; K562 cells, 10 uM, 30 min; active = over 0.2 and 3.5 SD of the protein, either way, in both replicates (recomputed)).
In short: (§1)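 K562 cells at 2×10^6 cells/mL were treated with 10 μM compound for 30 min. Aliquots were heated for 3 min across 48°C-58°C, pooled, and extracted in PBS with 0.5% NP-40 at 4°C; soluble protein was the supernatant after 21,000xg for 90 min. Soluble protein was quantified by TMTpro 16plex LC-MS/MS with channel sums equalised, and reported as log2 fold change in thermal stability against DMSO controls, with values from duplicates.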

log2 fold change, inactive:
NDUFA4 (UniProt O00483) -0.043
MZT2A (UniProt Q6P582) -0.006
NDUFB6 (UniProt O95139) -0.132
NAA30 (UniProt Q147X3) -0.09
NDUFAF5 (UniProt Q5TEU4) 0.019
NEFH (UniProt P12036) -0.117
NCAPG2 isoform 2 (UniProt Q86XI2) 0.115
NDUFS5 (UniProt O43920) -0.109
NAA10 (UniProt P41227) -0.027
NDRG2 (UniProt Q9UN36) -0.05
NADSYN1 (UniProt Q6IA69) -0.005
NCOR2 (UniProt C9J0Q5) 0.005
NAP1L1 (UniProt P55209) -0.018
NECAP1 (UniProt Q8NC96) -0.025
NDUFA2 (UniProt O43678) 0.083
NCOR1 (UniProt O75376) -0.009
NAPRT (UniProt Q6XQN6) -0.027
NA, A0A0B4J2A0 -0.066
N6AMT1 (UniProt Q9Y5N5) 0.026
NDUFA10 (UniProt O95299) -0.045
NEBL isoform 2 (UniProt O76041) -0.05
NDUFA7 (UniProt O95182) -0.056
NAXD (UniProt Q8IW45) -0.034
NARF (UniProt Q9UHQ1) -0.083
NCAPH (UniProt Q15003) 0.015
NCAPD2 (UniProt Q15021) 0.03
NCLN (UniProt Q969V3) -0.038
NDUFAF2 (UniProt Q8N183) -0.056
NAXE (UniProt Q8NCW5) -0.031
NDUFA11 (UniProt Q86Y39) -0.073
NAP1L4 isoform 2 (UniProt Q99733) -0.033
NDUFB5 (UniProt O43674) -0.141
NDEL1 isoform 2 (UniProt Q9GZM8) -0.136
NCDN isoform 3 (UniProt Q9UBB6) -0.009

What follows are targets tested with Cc1cccc(CC(=O)N2CCc3c2ccc(-c2cn(C)c4ncnc(N)c24)c3F)n1 in the same assay as above.
In short: as §1

log2 fold change, inactive:
NDUFA4 (UniProt O00483) 0.014
MZT2A (UniProt Q6P582) 0.358
NDUFB6 (UniProt O95139) -0.018
NAA30 (UniProt Q147X3) 0.063
NDUFAF5 (UniProt Q5TEU4) 0.025
NEFH (UniProt P12036) -0.007
NCAPG2 isoform 2 (UniProt Q86XI2) 0.009
NDUFS5 (UniProt O43920) -0.086
NAA10 (UniProt P41227) 0.018
NDRG2 (UniProt Q9UN36) 0.022
NADSYN1 (UniProt Q6IA69) 0.023
NCOR2 (UniProt C9J0Q5) 0.035
NAP1L1 (UniProt P55209) -0.094
NECAP1 (UniProt Q8NC96) -0.016
NDUFA2 (UniProt O43678) 0.004
NCOR1 (UniProt O75376) -0.056
NAPRT (UniProt Q6XQN6) -0.023
NA, A0A0B4J2A0 0.024
N6AMT1 (UniProt Q9Y5N5) 0.051
NDUFA10 (UniProt O95299) 0.138
NEBL isoform 2 (UniProt O76041) -0.033
NDUFA7 (UniProt O95182) 0.124
NAXD (UniProt Q8IW45) 0.036
NARF (UniProt Q9UHQ1) 0.044
NCAPH (UniProt Q15003) 0.022
NCAPD2 (UniProt Q15021) 0.045
NCLN (UniProt Q969V3) -0.01
NDUFAF2 (UniProt Q8N183) -0.015
NAXE (UniProt Q8NCW5) 0.038
NDUFA11 (UniProt Q86Y39) -0.052
NAP1L4 isoform 2 (UniProt Q99733) -0.031
NDUFB5 (UniProt O43674) 0.013
NDEL1 isoform 2 (UniProt Q9GZM8) 0.008
NCDN isoform 3 (UniProt Q9UBB6) -0.021

These targets were tested with Cc1cn(-c2cc(NC(=O)c3ccc(C)c(Nc4nccc(-c5cccnc5)n4)c3)cc(C(F)(F)F)c2)cn1 [nilotinib] in the same assay as above.
In short: as §1

log2 fold change, inactive:
NDUFA4 (UniProt O00483) 0.024
MZT2A (UniProt Q6P582) 0.034
NDUFB6 (UniProt O95139) 0.027
NAA30 (UniProt Q147X3) 0.016
NDUFAF5 (UniProt Q5TEU4) -0.053
NEFH (UniProt P12036) 0.1
NCAPG2 isoform 2 (UniProt Q86XI2) -0.213
NDUFS5 (UniProt O43920) -0.016
NAA10 (UniProt P41227) -0.041
NDRG2 (UniProt Q9UN36) -0.005
NADSYN1 (UniProt Q6IA69) 0.03
NCOR2 (UniProt C9J0Q5) -0.012
NAP1L1 (UniProt P55209) 0.009
NECAP1 (UniProt Q8NC96) -0.048
NDUFA2 (UniProt O43678) -0.031
NCOR1 (UniProt O75376) 0.182
NAPRT (UniProt Q6XQN6) -0.02
NA, A0A0B4J2A0 0.035
N6AMT1 (UniProt Q9Y5N5) 0.004
NDUFA10 (UniProt O95299) -0.115
NEBL isoform 2 (UniProt O76041) 0.055
NDUFA7 (UniProt O95182) 0.016
NAXD (UniProt Q8IW45) -0.024
NARF (UniProt Q9UHQ1) -0.017
NCAPH (UniProt Q15003) -0.055
NCAPD2 (UniProt Q15021) -0.078
NCLN (UniProt Q969V3) -0.009
NDUFAF2 (UniProt Q8N183) -0.004
NAXE (UniProt Q8NCW5) 0
NDUFA11 (UniProt Q86Y39) -0.094
NAP1L4 isoform 2 (UniProt Q99733) 0.028
NDUFB5 (UniProt O43674) -0.008
NDEL1 isoform 2 (UniProt Q9GZM8) 0.021
NCDN isoform 3 (UniProt Q9UBB6) -0.108
